Reference: paper PMC11733299
No constants are given. Whether binding was seen depends on the method and setting. Binding seen in cells or lysates may run through a third protein. Some results given as binding are weak or reduced against the parent protein; the word gives no strength. Where a sequence is shown, tags or fusion partners need not be part of it.

Key:
[1] = target: T1, cLUC-CNGC6-N (Arabidopsis thaliana) (UniProt O82226); assay: split reporter; firefly luciferase complementation in N. benthamiana leaves; nLUC and cLUC fusions co-injected by Agrobacterium GV3101; 1 mM luciferin sprayed 48 h after injection, photos 7 min later
T1 sequence: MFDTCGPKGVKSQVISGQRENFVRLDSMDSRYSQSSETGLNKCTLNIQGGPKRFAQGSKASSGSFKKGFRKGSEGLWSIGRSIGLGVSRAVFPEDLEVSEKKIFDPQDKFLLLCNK

[2] = target: T2, cLUC-CNGC6 (Arabidopsis thaliana) (UniProt O82226); assay: as above
T2 sequence: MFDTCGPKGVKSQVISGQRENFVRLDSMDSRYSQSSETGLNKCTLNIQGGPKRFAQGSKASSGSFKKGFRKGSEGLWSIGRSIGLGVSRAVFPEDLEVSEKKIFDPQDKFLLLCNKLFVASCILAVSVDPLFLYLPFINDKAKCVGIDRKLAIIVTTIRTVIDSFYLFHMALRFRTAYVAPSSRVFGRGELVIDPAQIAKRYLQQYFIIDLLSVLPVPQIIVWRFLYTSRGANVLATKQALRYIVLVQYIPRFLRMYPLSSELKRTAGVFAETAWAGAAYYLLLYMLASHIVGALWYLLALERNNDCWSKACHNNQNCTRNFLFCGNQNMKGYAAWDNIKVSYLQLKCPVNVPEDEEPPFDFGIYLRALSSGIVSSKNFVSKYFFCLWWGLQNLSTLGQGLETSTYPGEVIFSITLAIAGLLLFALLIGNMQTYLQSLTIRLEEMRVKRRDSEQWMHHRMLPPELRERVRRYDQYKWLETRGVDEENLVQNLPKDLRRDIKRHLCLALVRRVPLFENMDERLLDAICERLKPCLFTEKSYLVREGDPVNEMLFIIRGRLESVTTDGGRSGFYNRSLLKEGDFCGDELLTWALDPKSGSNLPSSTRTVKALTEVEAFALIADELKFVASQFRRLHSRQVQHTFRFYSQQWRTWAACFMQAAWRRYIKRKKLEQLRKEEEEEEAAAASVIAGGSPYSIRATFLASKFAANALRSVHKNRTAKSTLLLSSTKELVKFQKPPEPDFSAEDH

[3] = target: T3, cLUC-CNGC9 (Arabidopsis thaliana) (UniProt Q9M0A4); assay: as above
T3 sequence: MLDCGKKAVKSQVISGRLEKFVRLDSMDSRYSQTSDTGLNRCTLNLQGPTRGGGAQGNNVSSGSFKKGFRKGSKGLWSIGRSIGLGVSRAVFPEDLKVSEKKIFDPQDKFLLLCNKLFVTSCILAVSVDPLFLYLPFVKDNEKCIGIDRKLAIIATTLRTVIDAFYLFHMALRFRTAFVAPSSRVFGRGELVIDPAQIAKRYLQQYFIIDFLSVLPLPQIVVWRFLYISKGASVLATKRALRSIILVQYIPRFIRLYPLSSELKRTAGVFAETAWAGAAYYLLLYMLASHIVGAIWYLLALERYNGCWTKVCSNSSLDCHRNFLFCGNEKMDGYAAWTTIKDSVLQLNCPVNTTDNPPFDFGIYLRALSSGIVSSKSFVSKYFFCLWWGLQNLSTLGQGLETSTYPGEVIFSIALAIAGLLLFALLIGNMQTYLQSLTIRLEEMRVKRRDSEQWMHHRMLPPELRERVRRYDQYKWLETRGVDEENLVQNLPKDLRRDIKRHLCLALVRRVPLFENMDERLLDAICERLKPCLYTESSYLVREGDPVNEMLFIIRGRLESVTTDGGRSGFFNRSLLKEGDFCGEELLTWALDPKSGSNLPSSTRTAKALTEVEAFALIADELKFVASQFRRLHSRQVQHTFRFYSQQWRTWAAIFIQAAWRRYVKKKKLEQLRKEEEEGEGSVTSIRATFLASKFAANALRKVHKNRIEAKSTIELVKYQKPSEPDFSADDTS

[4] = target: T4, cLUC-CNGC5-N (Arabidopsis thaliana) (UniProt Q8RWS9); assay: as above
T4 sequence: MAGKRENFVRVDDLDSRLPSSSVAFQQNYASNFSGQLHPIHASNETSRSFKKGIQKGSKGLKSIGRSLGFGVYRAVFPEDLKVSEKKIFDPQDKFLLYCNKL

[5] = target: T5, cLUC-CNGC9-N (Arabidopsis thaliana) (UniProt Q9M0A4); assay: as above
T5 sequence: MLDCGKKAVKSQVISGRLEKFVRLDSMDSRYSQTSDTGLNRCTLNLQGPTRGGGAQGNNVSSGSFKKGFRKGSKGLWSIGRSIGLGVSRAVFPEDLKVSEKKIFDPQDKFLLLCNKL

[6] = target: T6, cLUC-CNGC5 (Arabidopsis thaliana) (UniProt Q8RWS9); assay: as above
T6 sequence: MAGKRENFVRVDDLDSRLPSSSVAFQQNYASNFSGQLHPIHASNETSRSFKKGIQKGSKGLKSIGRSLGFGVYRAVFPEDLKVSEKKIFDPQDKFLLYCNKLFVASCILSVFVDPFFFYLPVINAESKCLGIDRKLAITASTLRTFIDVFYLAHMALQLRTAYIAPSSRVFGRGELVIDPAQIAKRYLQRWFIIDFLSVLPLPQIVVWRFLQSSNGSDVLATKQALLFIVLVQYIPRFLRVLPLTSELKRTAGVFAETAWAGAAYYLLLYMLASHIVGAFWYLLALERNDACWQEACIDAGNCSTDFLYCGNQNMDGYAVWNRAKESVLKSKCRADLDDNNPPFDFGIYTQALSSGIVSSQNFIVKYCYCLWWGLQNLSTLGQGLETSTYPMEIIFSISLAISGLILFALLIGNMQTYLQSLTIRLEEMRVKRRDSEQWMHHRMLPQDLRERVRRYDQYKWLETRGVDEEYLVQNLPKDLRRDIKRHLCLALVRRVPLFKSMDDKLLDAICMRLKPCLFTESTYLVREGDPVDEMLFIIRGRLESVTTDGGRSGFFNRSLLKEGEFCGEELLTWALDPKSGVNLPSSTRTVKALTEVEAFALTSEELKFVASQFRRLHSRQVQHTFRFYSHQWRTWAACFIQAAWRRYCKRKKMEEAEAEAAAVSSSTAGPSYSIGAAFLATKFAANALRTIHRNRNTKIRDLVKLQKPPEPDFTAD

[7] = target: T7, CNGC5-YFP^N (Arabidopsis thaliana) (UniProt Q8RWS9); assay: split reporter; BiFC with split YFP in Xenopus laevis oocytes; cRNA 25 ng per vector micro-injected; 2-3 days at 16 °C in ND96; confocal microscopy
T7 sequence: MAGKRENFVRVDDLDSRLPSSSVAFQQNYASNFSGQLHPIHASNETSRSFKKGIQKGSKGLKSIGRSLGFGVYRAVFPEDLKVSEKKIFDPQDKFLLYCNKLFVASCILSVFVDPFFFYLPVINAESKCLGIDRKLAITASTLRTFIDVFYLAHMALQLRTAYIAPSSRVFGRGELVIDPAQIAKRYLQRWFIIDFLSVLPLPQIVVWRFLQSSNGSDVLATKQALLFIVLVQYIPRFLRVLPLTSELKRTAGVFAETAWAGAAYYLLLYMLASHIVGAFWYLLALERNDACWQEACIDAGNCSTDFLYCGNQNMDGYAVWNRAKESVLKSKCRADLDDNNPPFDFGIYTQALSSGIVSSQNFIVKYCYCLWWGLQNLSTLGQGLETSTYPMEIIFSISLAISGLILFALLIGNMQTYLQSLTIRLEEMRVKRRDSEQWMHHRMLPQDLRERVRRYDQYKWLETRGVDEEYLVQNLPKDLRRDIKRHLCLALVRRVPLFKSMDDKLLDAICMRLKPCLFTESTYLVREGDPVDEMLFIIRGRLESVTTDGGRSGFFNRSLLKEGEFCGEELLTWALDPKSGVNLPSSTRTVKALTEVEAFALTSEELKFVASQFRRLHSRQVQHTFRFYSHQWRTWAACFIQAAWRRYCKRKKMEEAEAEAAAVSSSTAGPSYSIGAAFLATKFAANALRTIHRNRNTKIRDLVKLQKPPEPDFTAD

[8] = target: T8, CNGC9-YFP^N (Arabidopsis thaliana) (UniProt Q9M0A4); assay: as above
T8 sequence: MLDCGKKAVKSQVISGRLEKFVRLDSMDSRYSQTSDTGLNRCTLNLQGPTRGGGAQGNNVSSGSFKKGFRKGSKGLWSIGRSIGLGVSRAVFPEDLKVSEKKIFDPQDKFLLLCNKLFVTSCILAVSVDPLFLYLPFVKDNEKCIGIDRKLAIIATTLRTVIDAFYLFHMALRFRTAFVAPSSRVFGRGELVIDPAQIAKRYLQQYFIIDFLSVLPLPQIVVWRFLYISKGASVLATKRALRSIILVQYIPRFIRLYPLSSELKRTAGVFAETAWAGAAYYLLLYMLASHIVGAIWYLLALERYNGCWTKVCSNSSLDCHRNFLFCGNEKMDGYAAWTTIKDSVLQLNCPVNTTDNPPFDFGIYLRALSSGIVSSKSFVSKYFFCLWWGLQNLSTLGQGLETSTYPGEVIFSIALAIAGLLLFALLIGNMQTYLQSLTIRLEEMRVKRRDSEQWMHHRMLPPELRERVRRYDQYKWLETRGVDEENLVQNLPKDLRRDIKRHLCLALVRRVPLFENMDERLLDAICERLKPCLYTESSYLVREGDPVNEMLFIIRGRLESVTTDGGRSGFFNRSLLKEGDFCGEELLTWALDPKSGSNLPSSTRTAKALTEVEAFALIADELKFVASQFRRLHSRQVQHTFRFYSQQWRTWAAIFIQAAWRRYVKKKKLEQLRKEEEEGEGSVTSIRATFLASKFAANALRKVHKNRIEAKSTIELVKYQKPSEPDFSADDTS

[9] = target: T9, CNGC6-YFP^N (Arabidopsis thaliana) (UniProt O82226); assay: as above
T9 sequence: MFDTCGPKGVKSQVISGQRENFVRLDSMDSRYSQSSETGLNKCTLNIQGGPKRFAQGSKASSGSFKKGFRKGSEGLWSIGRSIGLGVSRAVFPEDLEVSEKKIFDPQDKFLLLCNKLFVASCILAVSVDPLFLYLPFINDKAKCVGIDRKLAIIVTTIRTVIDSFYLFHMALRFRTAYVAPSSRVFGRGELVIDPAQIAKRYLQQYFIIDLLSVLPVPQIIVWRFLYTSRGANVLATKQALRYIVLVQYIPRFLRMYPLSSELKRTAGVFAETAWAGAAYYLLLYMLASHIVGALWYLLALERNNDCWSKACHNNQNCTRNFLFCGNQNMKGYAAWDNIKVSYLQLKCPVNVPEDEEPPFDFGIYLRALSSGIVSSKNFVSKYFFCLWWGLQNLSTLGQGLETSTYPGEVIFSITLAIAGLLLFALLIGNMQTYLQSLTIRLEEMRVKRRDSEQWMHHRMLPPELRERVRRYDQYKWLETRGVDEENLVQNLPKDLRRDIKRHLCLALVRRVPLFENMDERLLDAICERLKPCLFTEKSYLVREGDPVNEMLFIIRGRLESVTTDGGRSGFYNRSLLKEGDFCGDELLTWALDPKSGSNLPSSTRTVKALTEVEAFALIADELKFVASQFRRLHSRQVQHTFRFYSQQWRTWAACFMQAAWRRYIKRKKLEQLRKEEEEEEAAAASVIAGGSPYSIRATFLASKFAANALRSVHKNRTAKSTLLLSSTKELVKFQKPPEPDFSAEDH

Measured: binding

B1: CPK1-nLUC (enzyme, UniProt Q06850 1-610)
chain: MGNTCVGPSRNGFLQSVSAAMWRPRDGDDSASMSNGDIASEAVSGELRSRLSDEVQNKPPEQVTMPKPGTDVETKDREIRTESKPETLEEISLESKPETKQETKSETKPESKPDPPAKPKKPKHMKRVSSAGLRTESVLQRKTENFKEFYSLGRKLGQGQFGTTFLCVEKTTGKEFACKSIAKRKLLTDEDVEDVRREIQIMHHLAGHPNVISIKGAYEDVVAVHLVMECCAGGELFDRIIQRGHYTERKAAELTRTIVGVVEACHSLGVMHRDLKPENFLFVSKHEDSLLKTIDFGLSMFFKPDDVFTDVVGSPYYVAPEVLRKRYGPEADVWSAGVIVYILLSGVPPFWAETEQGIFEQVLHGDLDFSSDPWPSISESAKDLVRKMLVRDPKKRLTAHQVLCHPWVQVDGVAPDKPLDSAVLSRMKQFSAMNKFKKMALRVIAESLSEEEIAGLKEMFNMIDADKSGQITFEELKAGLKRVGANLKESEILDLMQAADVDNSGTIDYKEFIAATLHLNKIEREDHLFAAFTYFDKDGSGYITPDELQQACEEFGVEDVRIEELMRDVDQDNDGRIDYNEFVAMMQKGSITGGPVKMGLEKSFSIALKL
not listed: [7] | [8] | [9]
binds: all other assays above

B2: CPK1-YFP^C (enzyme, UniProt Q06850 1-610)
chain: MGNTCVGPSRNGFLQSVSAAMWRPRDGDDSASMSNGDIASEAVSGELRSRLSDEVQNKPPEQVTMPKPGTDVETKDREIRTESKPETLEEISLESKPETKQETKSETKPESKPDPPAKPKKPKHMKRVSSAGLRTESVLQRKTENFKEFYSLGRKLGQGQFGTTFLCVEKTTGKEFACKSIAKRKLLTDEDVEDVRREIQIMHHLAGHPNVISIKGAYEDVVAVHLVMECCAGGELFDRIIQRGHYTERKAAELTRTIVGVVEACHSLGVMHRDLKPENFLFVSKHEDSLLKTIDFGLSMFFKPDDVFTDVVGSPYYVAPEVLRKRYGPEADVWSAGVIVYILLSGVPPFWAETEQGIFEQVLHGDLDFSSDPWPSISESAKDLVRKMLVRDPKKRLTAHQVLCHPWVQVDGVAPDKPLDSAVLSRMKQFSAMNKFKKMALRVIAESLSEEEIAGLKEMFNMIDADKSGQITFEELKAGLKRVGANLKESEILDLMQAADVDNSGTIDYKEFIAATLHLNKIEREDHLFAAFTYFDKDGSGYITPDELQQACEEFGVEDVRIEELMRDVDQDNDGRIDYNEFVAMMQKGSITGGPVKMGLEKSFSIALKL
binds: [7] | [8] | [9]
